At least one peptide structure holds a part that was inferred or is arguable (an end, a ring closure or a residue). Where a SMILES comes first, the peptide text is derived from it. [ ]: non-standard residue; d: D form. ξ: configuration not given here. ξαMeP = CC1(C(=O)O)CCCN1
Test system: cortical cultures
Assay: Neuroprotection in cortical cultures after toxin (okadaic acid), MTT survival assay
Type: cell-based, rat
Method: One cortical hemisphere from a postnatal day 1 rat was used and collected into 4 ml of DMEM. Trituration was done with a 5 ml glass pipette and subsequently through an 18 gauge needle. Afterwards, the cell suspension was sieved through a 100 μm cell strainer and washed in 50 ml DMEM (centrifugation for 5 min at 250 g). […] After cells reached confluence, they were washed three times with PBS and adjusted to Neurobasal/B27 and incubated for another 3 days. This supernatant was frozen for transient storage until usage at −80° C. A dam was sacrificed by CO2-treatment in a chamber for up to 4 minutes and was prepared then for cesarean section. After surgery, the embryos were removed from their amniotic sacs, decapitated and the heads put on ice in DMEM/F12 medium for striatum and PBS+0.65% D(+)-glucose for cortex. The two cortical hemispheres were carefully removed by a spatula from the whole brain with the ventral side facing upside into a PBS +0.65% D(+)-glucose containing petri dish. […] Cells were counted and adjusted to 50,000 cells per 60 μl. […] The survival rate was determined by a colorimetric end-point MTT-assay at 595 nm in a multi-well plate reader. For the cerebellar microexplants four windows (field of 0.65 mm^2) with highest cell density were chosen and cells displaying neurite outgrowth were counted.

`CC1(C(=O)N[C@@H](CCC(=O)O)C(=O)O)CCCN1C(=O)CN` (some centres unmarked) [G-2Methyl-PE] (H-Gly-[ξαMeP]-Glu-OH) was tested, and the “neuroprotective capabilities (in words)” value (all three tested in vitro systems (cortical, striatal, cerebellar), FIGS. 12-15, compared with GPE) was “comparable neuroprotective capabilities” and the neuroprotection (cortical cultures, 10 μM, FIG. 13, 24 hrs incubation, 8DIV) was 59%.

From patent US20030055004A1, “GPE analogs and peptidominetics” (priority 2001, published 2003)
